# Reference: PubChem BioAssay AID445 (National Center for Advancing Translational Sciences (NCATS), 2006)
# The other results are listed elsewhere or left out. These are further read-outs of the screen, such as a control signal, another cell line or another target. No call is given for them. The list favours compounds with an active or inconclusive main result. Potencies come from curve fits of mixed quality, noted in brackets.
# Test: IkB Signaling
# Conditions: ABC-DLBCL IkBa-CBG/CBR dual luciferase ratio (green luciferase fused to IkBa over red control in OCI-Ly3 lymphoma cells), 4 h; measured here: control luc red channel unless noted
# In short: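 Luminescence ratio of IκBα-fused green versus native red beetle luciferase in OCI-Ly3 cells, 4 h post-doxycycline with compound; red signal alone, scaled from basal (0%) to zero light (-100%), flagged nonspecific or cytotoxic effects.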
row,Structure (SMILES),AC50
1,COC(=O)c1sc2cccc(F)c2c1S(=O)(=O)NCc1ccc(F)cc1,"0.794 µM [falling, full curve]"
2,CCOC(=O)c1cnc2c(Cl)c(Cl)ccc2c1Nc1ccc(N(C)C)cc1,"15.8 µM [falling, partial curve]"
3,Cc1ccccc1-n1c(=O)c2ccccc2n(Cc2ccc(F)cc2)c1=O,"20 µM [falling, single point]"
4,O=C(Nc1ccc(F)cc1)c1ncn(-c2ccccc2)n1,"0.501 µM [falling, full curve]"
5,COc1ccc(CNC(=O)Cc2nn(C)c(=O)c3ccccc23)cc1,"12.6 µM [falling, partial curve]"
6,CCOC(=O)c1ccccc1NC(=O)CN(c1cc(C(F)(F)F)ccc1Cl)S(C)(=O)=O,"25.1 µM [falling, single point]"
7,Cc1ccc2nc(NC(=O)C3CCCN(S(=O)(=O)c4cccc5nonc45)C3)sc2c1 (stereo not given),"2.51 µM [falling, full curve]"
8,CCCCSCCCNC(=O)c1cn(CC)c2ccc(S(=O)(=O)N(C)C3CCCCC3)cc2c1=O,"25.1 µM [falling, single point]"
9,c1ccc(-c2nc(NCc3ccco3)c3ccccc3n2)nc1,"12.6 µM [falling, partial curve]"
10,Cc1ccc(CCNC(=O)CCS(=O)(=O)c2ccc3c(c2)oc(=O)n3C)cc1,"1.26 µM [falling, full curve, poor fit]"
11,Cc1[nH]c(=O)[nH]c(=O)c1NC(=O)CSc1ncccc1-c1nc2ccccc2[nH]1,"12.6 µM [falling, partial curve]"
12,Cc1c(Cl)cccc1NC(=O)C1CCCN(C(=O)c2cnn(-c3ccccc3)c2-n2cccc2)C1 (stereo not given),"25.1 µM [falling, partial curve]"
13,O=C(CN1C(=O)COc2ccc(S(=O)(=O)N3CCOCC3)cc21)Nc1ccc(F)c(Cl)c1,"39.8 µM [falling, single point]"
14,O=C(NCCc1ccc(Cl)cc1)C(=O)NCC(c1ccc2c(c1)OCO2)N1CCOCC1 (stereo not given),"25.1 µM [rising, partial curve]"
15,Cc1cc(C)n(-c2nc3ccccc3nc2N2CCCCCC2)n1,"20 µM [falling, partial curve]"
16,O=C(Nc1nnc(Cc2ccccc2)s1)c1cccs1,"25.1 µM [falling, single point]"
17,O=C(Nc1cc(C(F)(F)F)ccc1Cl)c1cc(-c2cccs2)nc2ccccc12,"2 µM [falling, full curve, poor fit]"
18,Cc1cc(C)c(S(=O)(=O)NCCc2sc(-c3cccnc3)nc2C)c(C)c1,"5.01 µM [rising, full curve]"
19,O=C1CN(CC(=O)N2CCCCC2)c2ccccc2O1,"1.26 µM [falling, full curve]"
20,Cc1cc(S(=O)(=O)Nc2cc3c(cc2Cl)n(C)c(=O)c(=O)n3C)ccc1F,"39.8 µM [falling, single point]"

row,Structure (SMILES),AC50
1,COc1ccc(S(=O)(=O)NCC(c2cccnc2)N2CCN(c3ccccc3OC)CC2)cc1C (stereo not given),"12.6 µM [falling, partial curve]"
2,CCOC(=O)c1cc(-c2ccc(OC)cc2)n(CCC(=O)NCc2ccccc2OC)c1C,"25.1 µM [falling, single point]"
3,Cc1ccsc1CN(Cc1ccco1)C(=O)c1ccc(Cl)cc1,"31.6 µM [falling, single point]"
4,COc1ccc(S(=O)(=O)N(Cc2ccccc2)Cc2nc(-c3ccccc3)no2)cc1,"12.6 µM [falling, partial curve]"
5,CCOC(=O)C1=C(CS(=O)(=O)c2ccc(C(C)(C)C)cc2)NC(=O)NC1c1cccc(OC)c1 (stereo not given),"39.8 µM [falling, single point]"
6,Cc1cccc(NC(=O)CSc2nnc3[nH]c(=O)cc(C)n23)c1C,"3.98 µM [rising, single point]"
7,O=C(NCc1cccnc1)c1noc2c1CCCC2,"3.98 µM [falling, partial curve]"
8,O=C(CSc1nnc(-c2ccc(F)cc2)o1)Nc1ccc(S(=O)(=O)N2CCCC2)cc1,"12.6 µM [falling, partial curve]"
9,Cc1cc(S(=O)(=O)Nc2cc3c(cc2NCc2ccccc2)n(C)c(=O)n3C)ccc1F,"31.6 µM [falling, partial curve]"
10,O=C(CSCc1ccc(F)cc1)N1CCc2c([nH]c3ccccc23)C1c1ccc(F)cc1 (stereo not given),"15.8 µM [falling, partial curve]"
11,Cc1c(C(=O)Nc2cccc(C(F)(F)F)c2)oc2ccc(S(=O)(=O)N3CCC4(CC3)OCCO4)cc12,"15.8 µM [falling, partial curve]"
12,Cc1ccc2c(c1)N(C(=O)CCC(=O)Nc1ccc(F)cc1F)CC(C)O2 (stereo not given),"12.6 µM [falling, partial curve]"
13,CCOc1ccccc1N(C)C(=O)c1cc(S(=O)(=O)NCCc2ccc(Cl)cc2)ccc1F,"12.6 µM [falling, partial curve]"
14,CC(C)(C)c1ccc(C(=O)N2CCC(c3noc(-c4ccc(S(=O)(=O)N5CCCC5)cc4)n3)CC2)cc1,"10 µM [falling, partial curve]"
15,CCN(CC)S(=O)(=O)c1ccc(NC(=O)c2ccc3c(=O)n4c(nc3c2)CCCCC4)cc1,"15.8 µM [falling, partial curve]"
16,CCc1ccccc1NC(=O)CSc1nc(C)c(C(=O)Nc2ccccc2)c(-c2ccc(Cl)cc2)c1C#N,"5.01 µM [falling, partial curve]"
17,Cc1ccc(C)c2[nH]c(=O)c(CN(Cc3ccco3)C(=O)Nc3ccccc3)cc12,"12.6 µM [falling, partial curve]"
18,COc1ccc(-c2nnc(SCC(=O)N3CCc4ccccc4C3)o2)cc1,"39.8 µM [falling, single point]"
19,CCN(CC)C(=O)Cn1nc(-c2ccccc2O)nc1SCC(=O)Nc1ccc(OC)cc1,"25.1 µM [falling, partial curve]"
20,COc1ccc(C2=NCC(CSc3nnc(-c4ccc5c(c4)OCO5)o3)S2)cc1 (stereo not given),"10 µM [falling, partial curve]"

# Not a retest: entries from further up.
row,Structure (SMILES),AC50
5,CCOC(=O)C1=C(CS(=O)(=O)c2ccc(C(C)(C)C)cc2)NC(=O)NC1c1cccc(OC)c1 (stereo not given),"39.8 µM [falling, single point]"
6,Cc1cccc(NC(=O)CSc2nnc3[nH]c(=O)cc(C)n23)c1C,"3.98 µM [rising, single point]"
7,O=C(NCc1cccnc1)c1noc2c1CCCC2,"3.98 µM [falling, partial curve]"
